{
  "source": "PubChem BioAssay AID1347076",
  "about": "(National Center for Advancing Translational Sciences (NCATS), 2019)",
  "note": "In all, about 400,000 compounds went through this assay and about 13,000 (3.2%) were called active. Inconclusive results, whose numbers are uncertain, are shown with a selection of clear calls. The call rests on the fitted dose curve; in most records, active means well fitted cell-killing curve with a large enough effect; inconclusive means small, poorly fitted or top-dose-only effect, or effect the other way; inactive means flat fitted curve, though single readings scatter. A potency beside an inconclusive call is a rough fit, not a confirmed value. On the % scale 0 is the no-effect control and ±100 the full control effect; potency means the concentration at half of the fitted maximal effect.",
  "data": [
    {"experiment": "qHTS assay for MDR1-selective chemotherapeutics: Primary screen using the drug-selected MDR subline cells KB-V1; further: nearly all actives have a fitted effect of over 60% in size", "conditions": "KB-V1 MDR cells viability, CellTiter-Glo, 72 h; activity change, negative = cytotoxicity: at 46.1 µM (top of the series)", "method_in_brief": "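Potencies derive from concentration-effect curves fitted to normalized luminescence (CellTiter-Glo) of KB-V1 cells treated for 72 h at 37 degrees C in phenol-red-free DMEM containing 10% FBS.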", "values": [
      {"smiles": "COc1ccc(C(=O)NNC(=O)C(=O)NC(C)c2ccccc2)cc1OC", "note": "(centres undefined)", "Potency": "inconclusive: 25.9 µM [rising, single point]"},
      {"smiles": "Cc1ccc(CNCc2cccn2-c2nnc(N3CCCC3)s2)cc1", "Potency": "inconclusive: 32.6 µM [cytotoxic, single point]"},
      {"smiles": "CCN1C(=O)c2n[nH]c(C(=O)OC)c2C1=O", "Potency": "inconclusive: 20.6 µM [rising, partial curve]"},
      {"smiles": "COc1ccc(OC)c(N2C(=O)c3ccccc3C2c2nnnn2-c2ccc3c(c2)OCCO3)c1", "note": "(centres undefined)", "Potency": "inconclusive: 16.4 µM [cytotoxic, partial curve, poor fit]"},
      {"smiles": "COCCn1c(SCC(=O)Nc2sc(C)c(C)c2C#N)nnc1-c1ccc(OC)cc1", "Potency": "active: 9.2 µM"},
      {"smiles": "Cc1ccc(C(=O)Nc2ccccc2C(=O)NCc2ccco2)cc1S(=O)(=O)N1CCCCC1", "Potency": "inconclusive: 18.4 µM [cytotoxic, partial curve, poor fit]"},
      {"smiles": "CCOc1ccc(OCCCC(=O)N(CC)CC(=O)Nc2c(F)cccc2F)cc1", "activity change, negative = cytotoxicity": "inactive: -1.9%"},
      {"smiles": "COc1cc(C(=O)NCCC(=O)NCc2c(F)cc(F)cc2F)cc(OC)c1OC", "activity change, negative = cytotoxicity": "inactive: 28.7%"},
      {"smiles": "COc1ccc(NC(=O)CSc2nc3ccsc3c(=O)n2CCC(=O)O)c(OC)c1", "Potency": "inconclusive: 29.1 µM [rising, single point]"},
      {"smiles": "O=C(Cn1ncc2c3ccccc3n(Cc3ccccc3)c2c1=O)NCc1ccco1", "Potency": "inconclusive: 8.2 µM [cytotoxic, partial curve]"},
      {"smiles": "COc1ccc(CCC(C)NC2CCCCCCC2)cc1", "note": "(centres undefined)", "Potency": "inconclusive: 29.1 µM [cytotoxic, single point]"},
      {"smiles": "CC1CCCCC1NS(=O)(=O)c1ccc(S(=O)(=O)NCc2ccncc2)cc1", "note": "(centres undefined)", "Potency": "active: 16.4 µM"},
      {"smiles": "Cc1nn(S(=O)(=O)c2ccc(C(C)(C)C)cc2)c(C)c1S(=O)(=O)N1CCC(C)CC1", "activity change, negative = cytotoxicity": "inactive: -25.3%"},
      {"smiles": "Cc1cc(C)cc(C(O)c2ncc(-c3ccccc3Cl)[nH]2)c1", "note": "(centres undefined)", "activity change, negative = cytotoxicity": "inactive: -2.83%"},
      {"smiles": "COc1ccc(/C=C2/CC/C(=C\\c3ccc(OC)c(OC)c3OC)C2=O)c(OC)c1OC", "Potency": "active: 2.06 µM"},
      {"smiles": "COc1ccnc(Oc2cccc(C(F)(F)F)c2)c1C(=O)N/C=N/OCc1ccccc1F", "Potency": "inconclusive: 1.16 µM [cytotoxic, partial curve, poor fit]"},
      {"smiles": "Cc1ccc(S(=O)(=O)NNc2nc3ccccc3nc2C(F)(F)F)cc1", "Potency": "inconclusive: 5.8 µM [rising, partial curve, poor fit]"},
      {"smiles": "CCCCn1c(SCC(=O)Nc2cc(C)on2)nc2cc(S(N)(=O)=O)ccc21", "Potency": "inconclusive: 1.64 µM [cytotoxic, full curve, poor fit]"},
      {"smiles": "OC[C@@H]1CN(Cc2ccc(-c3ccccc3)cc2)C[C@H](n2cnc3c(NC4CCC4)ncnc32)O1", "Potency": "inconclusive: 25.9 µM [cytotoxic, single point]"}
    ]}
  ]
}
